Measured values published in PMC12260585.
These are yes or no findings as the source states them, for the method shown. Binding seen in cells or lysates may run through a third protein. Some binding calls cover weakened binding; strength is not graded here.

Amino acid sequences for entries named in this document (tags omitted).
UniProt Q15836: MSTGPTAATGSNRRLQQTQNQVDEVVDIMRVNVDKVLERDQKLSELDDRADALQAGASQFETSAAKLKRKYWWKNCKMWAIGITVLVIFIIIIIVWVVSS

Columns and labels:
SNAP23 = target: T1, SNAP23 (UniProt O00161); assay: co-IP; co-immunoprecipitation with SNAP23 in HBMECs
T1 sequence: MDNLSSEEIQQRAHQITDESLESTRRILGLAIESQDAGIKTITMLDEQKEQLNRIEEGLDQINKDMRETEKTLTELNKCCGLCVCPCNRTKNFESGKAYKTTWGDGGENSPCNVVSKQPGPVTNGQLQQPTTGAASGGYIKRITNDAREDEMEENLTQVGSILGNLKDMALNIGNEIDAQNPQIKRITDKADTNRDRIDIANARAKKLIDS

FLAG-tagged VAMP3 = FLAG-tagged VAMP3 (UniProt Q15836); assay: co-IP; HBMECs transfected with FLAG-tagged VAMP3 or FLAG-tagged syntaxin 4
FLAG-tagged syntaxin 4 = FLAG-tagged syntaxin 4 (UniProt Q12846); assay: as above

## VAMP3 (from UniProt Q15836 1-100)
SNAP23
  binding: binds

B1: syntaxin 18 (protein, UniProt Q9P2W9 1-335)
chain: MAVDITLLFRASVKTVKTRNKALGVAVGGGVDGSRDELFRRSPRPKGDFSSRAREVISHIGKLRDFLLEHRKDYINAYSHTMSEYGRMTDTERDQIDQDAQIFMRTCSEAIQQLRTEAHKEIHSQQVKEHRTAVLDFIEDYLKRVCKLYSEQRAIRVKRVVDKKRLSKLEPEPNTKTRESTSSEKVSQSPSKDSEENPATEERPEKILAETQPELGTWGDGKGEDELSPEEIQMFEQENQRLIGEMNSLFDEVRQIEGRVVEISRLQEIFTEKVLQQEAEIDSIHQLVVGATENIKEGNEDIREAIKNNAGFRVWILFFLVMCSFSLLFLDWYDS
FLAG-tagged VAMP3
  binding: no binding
FLAG-tagged syntaxin 4
  binding: no binding
